Some entries share one result that the patent states for a list of compounds.
Tested on: mouse malignant melanoma B16 F0 cells
Test: MTT based cell proliferation assay, B16 F0 cells
Settings: as summarized in Table 1
Description: The cytotoxic efficacies of the various selenopheno triazene compounds (compounds 1 to 16) was evaluated in both human malignant melanoma A375 cells and mouse malignant melanoma B16 F0 cells by MTT cell proliferation assay kit (Roche Applied Sciences, Germany). The assay was carried out according to the instruction provided by the vendor. Briefly, equal numbers of cells was plated in 96-well flat-bottomed plates and were incubated with both DTIC and the test compounds (compounds 1 to 16) at various concentrations for a period of three days. […] Finally, the cells were solubilized by adding solubilizing solution and allowed to incubate at 37° C. overnight. After complete solubilization of the formazan crystals, the absorbance was read at 540 nm in a microplate reader (BioRad, USA).

SMILES | Efficacy compared to DTIC in B16F0 mouse melanoma cell line
Cn1nnc2c([se]c3ccccc32)c1=O [Compound 16, 3-methylbenzo[b]1,2,3-triazino[4,5-d]selenophen-4-one] | significantly higher efficacy compared to DTIC
Cn1nnc2cc(C(C)(C)C)[se]c2c1=O [Compound 13, 6-(tert-butyl)-3-methylselenopheno[3,2-d]1,2,3-triazin-4-one] | significantly higher efficacy compared to DTIC
CN(C)/N=N/c1cc(C(C)(C)C)[se]c1C#N [Compound 11, 3-[(dimethylamino)diazenyl]-5-(tert-butyl)selenophene-2-carbonitrile] | significantly higher efficacy compared to DTIC
Cn1nnc2cc(-c3ccccc3)[se]c2c1=O [Compound 12, 3-methyl-6-phenylselenopheno[3,2-d]1,2,3-triazin-4-one] | significantly higher efficacy compared to DTIC
CN(C)/N=N/c1cc(-c2ccccc2)[se]c1C(=O)O [Compound 7, 3-[(dimethylamino)diazenyl]-5-phenylselenophene-2-carboxylic acid] | significantly higher efficacy compared to DTIC
Cn1nnc2c([se]c3ncccc32)c1=O [Compound 15, 3-methyl-1,2,3-triazino[4′,5′-5,4]selenopheno[2,3-b]pyridine-4-one] | significantly higher efficacy compared to DTIC
CN(C)/N=N/c1c(C(N)=O)[se]c2ncccc12 [Compound 6, 3-[(dimethylamino)diazenyl]selenopheno[2,3-b]pyridine-2-carboxamide] | significantly higher efficacy compared to DTIC
CN(C)/N=N/c1c(C(N)=O)[se]c2c1CCCC2 [Compound 5, 3-[(dimethylamino)diazenyl]-4,5,6,7-tetrahydrobenzo[1,2-b]selenophene-2-carboxamide] | significantly higher efficacy compared to DTIC
CN(C)/N=N/c1c(C(=O)O)[se]c2ncccc12 [Compound 10, 3-[(dimethylamino)diazenyl]selenopheno[2,3-b]pyridine-2-carboxylic acid] | significantly higher efficacy compared to DTIC
Cn1nnc2c3c([se]c2c1=O)CCCC3 [Compound 14, 3-methyl-6,7,8,9-tetrahydrobenzo[1,2-b]1,2,3-triazino[4,5-d]selenophen-4-one] | significantly higher efficacy compared to DTIC
CN(C)/N=N/c1cc(-c2ccccc2)[se]c1C(N)=O [Compound 3, 3-[(dimethylamino)diazenyl]-5-phenylselenophene-2-carboxamide] | significantly higher efficacy compared to DTIC
CN(C)/N=N/c1cc(C(N)=O)[se]c1C(N)=O [Compound 2, 3-[(dimethylamino)diazenyl]selenophene-2,5-dicarboxamide] | significantly higher efficacy compared to DTIC
CN(C)/N=N/c1cc(C(C)(C)C)[se]c1C(=O)O [Compound 8, 3-[(dimethylamino)diazenyl]-5-(tert-butyl)selenophene-2-carboxylic acid] | significantly higher efficacy compared to DTIC
CN(C)/N=N/c1c(C(=O)O)[se]c2c1CCCC2 [Compound 9, 3-[(dimethylamino)diazenyl]-4,5,6,7-tetrahydrobenzo[1,2-b]selenophene-2-carboxylic acid] | significantly higher efficacy compared to DTIC
CN(C)/N=N/c1cc(C(C)(C)C)[se]c1C(N)=O [Compound 4, 3-[(dimethylamino)diazenyl]-5-(tert-butyl)selenophene-2-carboxamide] | significantly higher efficacy compared to DTIC
